{"sequences": {"note": "The chains behind the UniProt entries cited, without tags or fusion partners. Where a name states a change or a piece, a line headed by the entry shows the natural chain unless it says otherwise.", "UniProt O94782": "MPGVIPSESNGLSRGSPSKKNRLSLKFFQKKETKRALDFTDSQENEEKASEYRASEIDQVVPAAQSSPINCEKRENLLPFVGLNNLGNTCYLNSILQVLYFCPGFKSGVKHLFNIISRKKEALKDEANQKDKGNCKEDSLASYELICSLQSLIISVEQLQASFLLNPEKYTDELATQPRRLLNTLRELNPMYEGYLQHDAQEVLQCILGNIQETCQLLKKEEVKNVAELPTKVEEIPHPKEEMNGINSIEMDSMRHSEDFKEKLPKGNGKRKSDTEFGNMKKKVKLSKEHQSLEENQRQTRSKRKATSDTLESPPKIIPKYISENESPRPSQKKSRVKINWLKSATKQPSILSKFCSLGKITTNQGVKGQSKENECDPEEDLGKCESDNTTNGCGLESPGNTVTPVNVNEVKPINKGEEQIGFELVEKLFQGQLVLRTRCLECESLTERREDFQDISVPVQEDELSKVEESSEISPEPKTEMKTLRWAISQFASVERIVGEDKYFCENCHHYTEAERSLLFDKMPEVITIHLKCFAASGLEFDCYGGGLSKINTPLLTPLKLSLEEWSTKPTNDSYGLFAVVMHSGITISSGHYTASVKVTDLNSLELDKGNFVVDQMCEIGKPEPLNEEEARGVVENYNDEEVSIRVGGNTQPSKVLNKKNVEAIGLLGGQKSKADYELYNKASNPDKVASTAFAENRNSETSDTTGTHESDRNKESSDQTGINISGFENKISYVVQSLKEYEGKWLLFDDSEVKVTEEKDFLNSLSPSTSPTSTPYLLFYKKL"}, "source": "PubChem BioAssay AID743255", "about": "(National Center for Advancing Translational Sciences (NCATS), 2014)", "note": "Out of some 390,000 compounds screened, about 910 (0.23%) were called active. The inconclusive results got no clear call from the source; some entries with a clear call stand among them for comparison. Calls come from the whole dose curve; as a rule, active = well fitted inhibition curve with a large enough effect; inconclusive = small, poorly fitted or top-dose-only effect; inactive = no such curve, though single readings can be large or run the other way. A potency beside an inconclusive call is a rough fit, not a confirmed value. % is set by controls: 0 for no effect and ±100 for the full control effect; potency is the fitted concentration of half-maximal effect.", "data": [{"biological_target": "Ubiquitin carboxyl-terminal hydrolase 1 (Homo sapiens) (UniProt O94782)", "test": "Inhibitors of USP1/UAF1: Primary Screen; note: nearly all actives have a fitted effect of over 60% in size", "conditions": "recombinant USP1/UAF1, Ub-Rhodamine cleavage fluorescence; activity change, negative = inhibition: at 57.1 µM (top of the series)", "how_it_was_run": "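Step one: compound is pinned into 1nM USP1/UAF1 in HEPES pH 7.8 buffer with TCEP. Step two: 15 min room-temperature incubation. Step three: Ub-Rho (150nM final) starts cleavage, tracked by fluorescence over six one-minute reads.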", "values": [{"smiles": "COc1ccc(C(C)=O)cc1CC(=O)NCCCn1ccnc1", "Potency": "inconclusive: 11.2 µM [inhibitor, partial curve, poor fit]"}, {"smiles": "COc1ccccc1NS(=O)(=O)c1cc(NC(=O)c2ccncc2)ccc1N1CCOCC1", "Potency": "inactive"}, {"smiles": "COc1ccc(OC)c(CNC(=O)Nc2cn(CC(C)C)c(=O)c3ccccc23)c1", "Potency": "inconclusive: 28.2 µM [inhibitor, partial curve]"}, {"smiles": "Cn1cccc1/C=C1/SC(=S)N(CC(=O)O)C1=O", "Potency": "inconclusive: 28.2 µM [inhibitor, partial curve]"}, {"smiles": "O=C(CNCCC1=CCCCC1)Nc1ccc(N2CCCCCC2)cc1", "Potency": "inactive"}, {"smiles": "CCOC(=O)/C(C#N)=C/C=C1\\C=Cc2ccccc2N1CC", "Potency": "inconclusive: 39.8 µM [inhibitor, partial curve]"}, {"smiles": "CC(C)(C)C1CCc2c(sc(NC(=O)C3c4ccccc4Oc4ccccc43)c2C(N)=O)C1", "note": "(stereo unspecified)", "Potency": "inconclusive: 0.708 µM [inhibitor, full curve]"}, {"smiles": "CCn1cc(S(=O)(=O)c2cc(C)cc(C)c2)c(=O)c2cc(F)c(N3CCCCC3)cc21", "Potency": "inconclusive: 6.31 µM [inhibitor, full curve, poor fit]"}, {"smiles": "COC(=O)c1cccc(-c2ccc(C(c3c(C)[nH][nH]c3=O)c3c(C)[nH][nH]c3=O)o2)c1", "Potency": "inconclusive: 28.2 µM [inhibitor, partial curve, poor fit]"}, {"smiles": "Cc1cccc(N2C(=O)NC3(CCCCC3)C2=O)c1", "Potency": "inactive"}, {"smiles": "CCOc1ccccc1/C=C\\c1nc(O)c([N+](=O)[O-])c(=O)[nH]1", "Potency": "inconclusive: 22.4 µM [inhibitor, partial curve, poor fit]"}, {"smiles": "CCn1c(=O)c2c(nc3n2CCN3c2ccc(OC)cc2)n(C)c1=O", "Potency": "inconclusive: 5.62 µM [inhibitor, single point]"}, {"smiles": "Fc1ccccc1-c1nc(N2CCN(c3cccc(Cl)c3)CC2)c2ccccc2n1", "Potency": "inconclusive: 8.91 µM [inhibitor, partial curve]"}, {"smiles": "O=C1CSC(c2cn(-c3ccccc3)nc2-c2ccccc2)N1Cc1ccco1", "note": "(stereo unspecified)", "Potency": "inconclusive: 20 µM [inhibitor, partial curve]"}, {"smiles": "CC(OC(=O)c1ccc(O)cc1)C(=O)Nc1cc(C(F)(F)F)ccc1Cl", "note": "(stereo unspecified)", "Potency": "inconclusive: 0.355 µM [inhibitor, full curve, poor fit]"}, {"smiles": "COc1ccc(N2CCN(S(=O)(=O)c3ccc4c(c3)C(C(C)C)C(=O)N4)CC2)cc1", "note": "(stereo unspecified)", "Potency": "inconclusive: 1.41 µM [inhibitor, full curve, poor fit]"}, {"smiles": "CCCC(=O)NC(c1cccs1)c1cc(Cl)c2cccnc2c1O", "note": "(stereo unspecified)", "Potency": "inactive"}, {"smiles": "Cc1ccc(N=CC=C2OC(C)(C)C(C)(C)O2)cc1", "Potency": "inactive"}, {"smiles": "COc1cc(-c2cccc([C@H]3[C@@H]4C=CC[C@@H](C)[C@@H]4C(=O)N3Cc3ccccc3)c2)cc(OC)c1OC", "Potency": "inconclusive: 2 µM [inhibitor, full curve, poor fit]"}, {"smiles": "COc1ccc(N(CC(=O)NCCSc2ccccn2)S(=O)(=O)c2ccccc2)c(OC)c1", "Potency": "inconclusive: 44.7 µM [inhibitor, partial curve, poor fit]"}, {"smiles": "O=C(O)/C=C/c1ccc(S(=O)(=O)Nc2ccc3[nH]c(=O)[nH]c3c2)cc1", "Potency": "inconclusive: 28.2 µM [inhibitor, single point]"}, {"smiles": "O=C1C2=C(c3ccccc31)[N+](=O)C1CCCCC1N2[O-]", "note": "(stereo unspecified)", "Potency": "inconclusive: 28.2 µM [inhibitor, partial curve]"}, {"smiles": "COc1ccc(C)cc1S(=O)(=O)N1CCN(C(=O)c2ncoc2-c2ccc(F)cc2)CC1", "Potency": "inconclusive: 6.31 µM [inhibitor, single point]"}, {"smiles": "Cc1nn(-c2ccccc2)c(N)c1N=Nc1cccnc1", "Potency": "inactive"}, {"smiles": "CCc1cccc(NS(=O)(=O)c2ccc3c(c2)CC(C)N3C(=O)C2CC2)c1", "note": "(stereo unspecified)", "Potency": "inconclusive: 17.8 µM [inhibitor, partial curve]"}, {"smiles": "CCN1C=C(C(C)=O)C(=O)CC1", "Potency": "inconclusive: 0.447 µM [inhibitor, full curve, poor fit]"}, {"smiles": "O=C(/C=C\\Nc1ccccn1)c1ccc(Cl)cc1", "Potency": "inconclusive: 1 µM [inhibitor, full curve]"}, {"smiles": "Cc1cc(C)n(-c2nc3ccccc3c(=O)n2OCC(C)C)n1", "Potency": "inconclusive: 1.12 µM [inhibitor, full curve, poor fit]"}, {"smiles": "COc1ccc(NC(=O)C2CSC3c4ccccc4C(=O)N23)cc1", "note": "(stereo unspecified)", "Potency": "inactive"}, {"smiles": "CCCCNc1c(-c2ccc(OC)c(SC(C)CC)c2)nc2cc(C)ccn12", "note": "(stereo unspecified)", "Potency": "inconclusive: 44.7 µM [inhibitor, partial curve, poor fit]"}, {"smiles": "CCOC(=O)c1cc2n(c1/N=C/N(C)C)-c1ccccc1C2=O", "Potency": "active: 25.1 µM"}, {"smiles": "COc1cccc(OCc2cc(/C=N/Nc3ccc(C(=O)O)cc3)ccc2OC)c1", "Potency": "inconclusive: 56.2 µM [inhibitor, partial curve, poor fit]"}, {"smiles": "Cc1c(NC(=O)C(C)OC(=O)c2ccc([N+](=O)[O-])s2)c(=O)n(-c2ccccc2)n1C", "note": "(stereo unspecified)", "Potency": "inconclusive: 31.6 µM [inhibitor, partial curve, poor fit]"}, {"smiles": "COc1ccc(N(CC(=O)Nc2cccc(C)c2)S(=O)(=O)c2c(C)n[nH]c2C)cc1", "Potency": "inactive"}, {"smiles": "Cc1ccc2c(cnn2C(=O)CCC(=O)NC2CCCCC2)c1", "Potency": "inconclusive: 15.8 µM [inhibitor, partial curve]"}, {"smiles": "NC(=O)c1ccc(-n2nnnc2SCC(=O)Nc2ccccc2)cc1", "Potency": "inactive"}, {"smiles": "CCN1CCN(CC(=O)N2N=C(c3cccs3)CC2c2ccc(OC)c(OC)c2)C(=O)C1=O", "note": "(stereo unspecified)", "Potency": "inactive"}, {"smiles": "C#Cc1ccc([C@H]2C=C(C(=O)Nc3ccccc3)O[C@@H](OCc3ccc(CO)cc3)C2)cc1", "Potency": "inconclusive: 50.1 µM [inhibitor, partial curve, poor fit]"}, {"smiles": "Cc1ccc(Cl)cc1N1CCN(C(=O)CCS(=O)(=O)c2cc(Br)cc3c2N(C(=O)C2CC2)CC3)CC1", "Potency": "inconclusive: 6.31 µM [inhibitor, partial curve]"}, {"smiles": "O=C1CCC(C(=O)OCC(=O)N2N=C3/C(=C/c4ccccc4)CCCC3C2c2ccccc2)N1", "note": "(stereo unspecified)", "Potency": "inconclusive: 28.2 µM [inhibitor, partial curve]"}, {"smiles": "Cc1ccc(N2CC(NC(=O)c3ccccc3C(F)(F)F)CC2=O)cc1C", "note": "(stereo unspecified)", "Potency": "inconclusive: 6.31 µM [inhibitor, full curve, poor fit]"}, {"smiles": "O=C(O)c1cn(Cc2ccccc2)c2ccc(Cl)cc2c1=O", "Potency": "inconclusive: 12.6 µM [inhibitor, partial curve]"}, {"smiles": "Oc1ccc(C(c2nnnn2CCc2ccccc2)N2CCN(c3nc4ccccc4s3)CC2)cc1", "note": "(stereo unspecified)", "Potency": "inconclusive: 8.91 µM [inhibitor, partial curve]"}, {"smiles": "C[C@@H]1CN([C@@H](C)CO)C(=O)c2cccc(NC(=O)Nc3ccc(F)cc3)c2O[C@@H]1CN(C)Cc1ccc(Oc2ccccc2)cc1", "Potency": "inconclusive: 50.1 µM [inhibitor, partial curve, poor fit]"}, {"smiles": "Cc1ccc(NC(=O)CN2C=NS(=O)(=O)c3ccccc32)cc1", "Potency": "inactive"}, {"smiles": "CCOC(=O)COc1ccc(CC)cc1C(=O)c1ccn2nc(-c3ccc(F)cc3)cc2n1", "Potency": "inconclusive: 0.0631 µM [inhibitor, full curve, poor fit]"}, {"smiles": "C=CCN1C=C2C(=O)C(C)(OC(=O)CCc3ccccc3)C(=O)C=C2C=C1c1ccc(C#N)cc1", "note": "(stereo unspecified)", "Potency": "inconclusive: 31.6 µM [inhibitor, partial curve]"}, {"smiles": "CCc1ccc(NC(=O)c2cc(-c3ccc(OC)cc3)on2)cc1", "Potency": "inconclusive: 5.62 µM [inhibitor, partial curve]"}, {"smiles": "Cc1cccc2cc(CN(Cc3cccs3)Cc3nnnn3Cc3ccccc3)c(=O)[nH]c12", "Potency": "inconclusive: 39.8 µM [inhibitor, partial curve, poor fit]"}, {"smiles": "Cc1ccc(C2=CC(c3ccc(C)cc3)n3ncnc3N2)cc1", "note": "(stereo unspecified)", "Potency": "inconclusive: 100 µM [inhibitor, partial curve, poor fit]"}, {"smiles": "CC1(OC(=O)c2ccco2)C(=O)C=C2C=C(C3CC3)OC=C2C1=O", "note": "(stereo unspecified)", "Potency": "inconclusive: 44.7 µM [inhibitor, partial curve]"}, {"smiles": "O=C1OCCN1/N=C/c1ccc([N+](=O)[O-])o1", "Potency": "inconclusive: 79.4 µM [inhibitor, partial curve, poor fit]"}, {"smiles": "COc1ccc(C(=O)c2sc3nc4c(c(C(F)(F)F)c3c2N)CN(C(C)=O)CC4)cc1OC", "Potency": "active: 39.8 µM"}, {"smiles": "COc1ccc(CC(=O)NC(CC(=O)O)c2cccc([N+](=O)[O-])c2)cc1", "note": "(stereo unspecified)", "Potency": "inconclusive: 5.62 µM [inhibitor, partial curve, poor fit]"}, {"smiles": "CCN(CC)c1nc(N)c2c(N)nc(OC)cc2c1C#N", "Potency": "inconclusive: 39.8 µM [inhibitor, partial curve, poor fit]"}, {"smiles": "N#Cc1cccc(N=c2ssnc2Cl)c1", "Potency": "inconclusive: 35.5 µM [inhibitor, partial curve]"}, {"smiles": "Cc1ccc(-n2cc[nH]c2=S)c(C)c1", "Potency": "inconclusive: 6.31 µM [inhibitor, full curve, poor fit]"}, {"smiles": "Cc1cccc(OCCc2c(C)[nH]c(=S)[nH]c2=O)c1", "Potency": "inconclusive: 39.8 µM [inhibitor, partial curve, poor fit]"}, {"smiles": "O=C(COc1ccccc1)NCC(c1ccc(Cl)cc1)N1CCCCC1", "note": "(stereo unspecified)", "Potency": "inactive"}, {"smiles": "Cc1ccc(C)c(N2CCN(S(=O)(=O)c3c(C(=O)N4CCC(C)CC4)c(C)n(C)c3C)CC2)c1", "activity change, negative = inhibition": "inconclusive: -11.2% [inhibitor]"}, {"smiles": "Cc1sc(NC(=O)c2ccccc2)c(C(c2ccc(Cl)cc2)N2CCN(CCO)CC2)c1C", "note": "(stereo unspecified)", "Potency": "inconclusive: 44.7 µM [inhibitor, partial curve, poor fit]"}]}]}
